Measured values published in patent publication US4133805A (American Home Products Corporation, priority 1975, dated 1979).

Assay: general procedure: Boc solid-phase peptide synthesis; chloromethylated polystyrene resin (styrene with about 1 to 2% divinyl benzene)
Details: purification step, recovery from fraction D (700 mg)

PEPTIDE1{[Ahp7].K.N.F.F.W.K.T.F.T.S}$PEPTIDE1,PEPTIDE1,1:R1-11:R2$$$V2.0
step yield: 70% recovery

Some peptides are written in HELM: one residue between dots, names in brackets for other building blocks, links after the first $.
